{"source": "PubChem BioAssay AID686943, Drosophila RNAi Screening Center – 2013", "assay": "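Fly genes whose loss alters ERK activation after insulin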 (primary screen)", "system": "Drosophila S2R+ haemocyte-like cells expressing YFP-tagged ERK (Rolled)", "reagent": "long dsRNA against Drosophila genes", "treatment": "insulin stimulation versus unstimulated cells; dose and duration not given", "detection": "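Per-plate z-scores of phospho-ERK immunostaining normalised to YFP-tagged ERK, measured with and without insulin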", "direction": "replicate 1, z-score of dpERK with insulin and replicate 2, z-score of dpERK with insulin: higher = more active ERK per ERK-YFP after insulin", "note": "In all, the deposit lists about 23,000 reagents; this is an unselected part of those with a known target gene and a result. 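Extra replicates exist only for a retested subset of genes; insulin dose and duration not given; both raised and lowered dpERK matter.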 A plus sign joins genes that one reagent is predicted to hit. Further read-outs or replicates are left out here. Reagent sequences are not shown. The record does not give: the amount of reagent, the time to read-out."}
The opening 3 entries as a preview:
{"gene": "fsd (fates-shifted)", "DRSC id": "DRSC06166", "replicate 1, z-score of dpERK with insulin": 0.67, "replicate 2, z-score of dpERK with insulin": 0.8}
{"gene": "CG15152", "DRSC id": "DRSC02453", "replicate 1, z-score of dpERK with insulin": -0.24, "replicate 2, z-score of dpERK with insulin": 0.45}
{"gene": "Hmu (Hemomucin)", "DRSC id": "DRSC16705", "replicate 1, z-score of dpERK with insulin": 0.16, "replicate 2, z-score of dpERK with insulin": 0.15}

Main list, repeating the preview:
{"gene": "fsd (fates-shifted)", "DRSC id": "DRSC06166", "replicate 1, z-score of dpERK with insulin": 0.67, "replicate 2, z-score of dpERK with insulin": 0.8}
{"gene": "CG15152", "DRSC id": "DRSC02453", "replicate 1, z-score of dpERK with insulin": -0.24, "replicate 2, z-score of dpERK with insulin": 0.45}
{"gene": "Hmu (Hemomucin)", "DRSC id": "DRSC16705", "replicate 1, z-score of dpERK with insulin": 0.16, "replicate 2, z-score of dpERK with insulin": 0.15}
{"gene": "CG17271", "DRSC id": "DRSC15210", "replicate 1, z-score of dpERK with insulin": 0.27, "replicate 2, z-score of dpERK with insulin": -0.19}
{"gene": "CG17271", "DRSC id": "DRSC22629", "replicate 1, z-score of dpERK with insulin": -1.35, "replicate 2, z-score of dpERK with insulin": -1.6}
{"gene": "l(3)73Ah (lethal (3) 73Ah)", "DRSC id": "DRSC11359", "replicate 1, z-score of dpERK with insulin": -1.28, "replicate 2, z-score of dpERK with insulin": -0.08}
{"gene": "NO66 (Nucleolar protein 66)", "DRSC id": "DRSC18252", "replicate 1, z-score of dpERK with insulin": -0.39, "replicate 2, z-score of dpERK with insulin": -0.17}
{"gene": "Synd (Syndapin)", "DRSC id": "DRSC15116", "replicate 1, z-score of dpERK with insulin": -1.07, "replicate 2, z-score of dpERK with insulin": 0.24}
{"gene": "Trf4-2 (Topoisomerase related function 4-2)", "DRSC id": "DRSC15237", "replicate 1, z-score of dpERK with insulin": 0.82, "replicate 2, z-score of dpERK with insulin": -0.23}
{"gene": "CG15169", "DRSC id": "DRSC02470", "replicate 1, z-score of dpERK with insulin": -0.89, "replicate 2, z-score of dpERK with insulin": 0.32}
{"gene": "CG10376", "DRSC id": "DRSC02049", "replicate 1, z-score of dpERK with insulin": 0.54, "replicate 2, z-score of dpERK with insulin": 0.05}
{"gene": "CG13407", "DRSC id": "DRSC14583", "replicate 1, z-score of dpERK with insulin": 1.06, "replicate 2, z-score of dpERK with insulin": 1.07}
{"gene": "CG14270", "DRSC id": "DRSC17913", "replicate 1, z-score of dpERK with insulin": -0.03, "replicate 2, z-score of dpERK with insulin": 0}
{"gene": "CG42562", "DRSC id": "DRSC06453", "replicate 1, z-score of dpERK with insulin": 0.13, "replicate 2, z-score of dpERK with insulin": -0.7}
{"gene": "CG5860", "DRSC id": "DRSC15896", "replicate 1, z-score of dpERK with insulin": -0.47, "replicate 2, z-score of dpERK with insulin": 0.4}
{"gene": "CG44836", "DRSC id": "DRSC09915", "replicate 1, z-score of dpERK with insulin": -0.18, "replicate 2, z-score of dpERK with insulin": 0.35}
{"gene": "CG32453", "DRSC id": "DRSC21673", "replicate 1, z-score of dpERK with insulin": 0.27, "replicate 2, z-score of dpERK with insulin": 0.29}
{"gene": "SMC6 (Structural maintenance of chromosomes 6)", "DRSC id": "DRSC15829", "replicate 1, z-score of dpERK with insulin": 1.43, "replicate 2, z-score of dpERK with insulin": 0.43}
{"gene": "CG8916", "DRSC id": "DRSC20120", "replicate 1, z-score of dpERK with insulin": 0.22, "replicate 2, z-score of dpERK with insulin": -0.58}
{"gene": "DCTN2-p50 (Dynactin 2, p50 subunit)", "DRSC id": "DRSC07132", "replicate 1, z-score of dpERK with insulin": 0.15, "replicate 2, z-score of dpERK with insulin": 0.51}
{"gene": "14-3-3epsilon", "DRSC id": "DRSC16370", "replicate 1, z-score of dpERK with insulin": -1.32, "replicate 2, z-score of dpERK with insulin": -2.28}
{"gene": "cola + swif", "DRSC id": "DRSC06826", "replicate 1, z-score of dpERK with insulin": 0.25, "replicate 2, z-score of dpERK with insulin": 0.7}
{"gene": "cola + swif", "DRSC id": "DRSC21965", "replicate 1, z-score of dpERK with insulin": 0.84, "replicate 2, z-score of dpERK with insulin": 1.25}
{"gene": "CG42552 (retired record)", "DRSC id": "DRSC11512", "replicate 1, z-score of dpERK with insulin": -0.18, "replicate 2, z-score of dpERK with insulin": -0.26}
{"gene": "PCID2 (PCI domain-containing protein 2)", "DRSC id": "DRSC10822", "replicate 1, z-score of dpERK with insulin": 0.86, "replicate 2, z-score of dpERK with insulin": 0.5}
{"gene": "Upf2", "DRSC id": "DRSC18218", "replicate 1, z-score of dpERK with insulin": -1.67, "replicate 2, z-score of dpERK with insulin": -0.42}
{"gene": "rdog (red dog mine)", "DRSC id": "DRSC14431", "replicate 1, z-score of dpERK with insulin": -0.03, "replicate 2, z-score of dpERK with insulin": -0.39}
{"gene": "CG17764", "DRSC id": "DRSC18135", "replicate 1, z-score of dpERK with insulin": -0.24, "replicate 2, z-score of dpERK with insulin": -0.03}
{"gene": "CG31826", "DRSC id": "DRSC03357", "replicate 1, z-score of dpERK with insulin": -0.47, "replicate 2, z-score of dpERK with insulin": -0.03}
{"gene": "CG32568", "DRSC id": "DRSC19913", "replicate 1, z-score of dpERK with insulin": 0.45, "replicate 2, z-score of dpERK with insulin": 0.4}
{"gene": "CG14607", "DRSC id": "DRSC12551", "replicate 1, z-score of dpERK with insulin": 1.06, "replicate 2, z-score of dpERK with insulin": 0.66}
{"gene": "ssp7 (short spindle 7)", "DRSC id": "DRSC18878", "replicate 1, z-score of dpERK with insulin": 0.85, "replicate 2, z-score of dpERK with insulin": 0.36}
{"gene": "IPIP (Inositol phosphatase interacting protein)", "DRSC id": "DRSC02164", "replicate 1, z-score of dpERK with insulin": -0.2, "replicate 2, z-score of dpERK with insulin": -0.5}
{"gene": "rtp (retinophilin)", "DRSC id": "DRSC12132", "replicate 1, z-score of dpERK with insulin": -0.26, "replicate 2, z-score of dpERK with insulin": 0.4}
{"gene": "Kap-alpha3 (karyopherin alpha3)", "DRSC id": "DRSC16976", "replicate 1, z-score of dpERK with insulin": -0.95, "replicate 2, z-score of dpERK with insulin": -0.69}
{"gene": "aralar1", "DRSC id": "DRSC13987", "replicate 1, z-score of dpERK with insulin": -0.14, "replicate 2, z-score of dpERK with insulin": -0.13}
{"gene": "aralar1", "DRSC id": "DRSC16901", "replicate 1, z-score of dpERK with insulin": 5.02, "replicate 2, z-score of dpERK with insulin": 0}
{"gene": "CG4820", "DRSC id": "DRSC15654", "replicate 1, z-score of dpERK with insulin": -0.2, "replicate 2, z-score of dpERK with insulin": 0.1}
{"gene": "CG14313", "DRSC id": "DRSC14792", "replicate 1, z-score of dpERK with insulin": 0.13, "replicate 2, z-score of dpERK with insulin": -0.05}
{"gene": "CG2681", "DRSC id": "DRSC18464", "replicate 1, z-score of dpERK with insulin": 2.36, "replicate 2, z-score of dpERK with insulin": 0.55}
